Data: the supplement of paper PMC10849652
The other results are listed elsewhere or left out.

By UniProt entry, the sequences of proteins in these tests, tags left out. Where a name states a change or a piece, a line headed by the entry shows the natural chain unless it says otherwise.
UniProt P62308, whole entry, looked up: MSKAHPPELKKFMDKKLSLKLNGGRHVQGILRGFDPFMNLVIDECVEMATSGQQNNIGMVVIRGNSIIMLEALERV
UniProt P08621, whole entry, looked up: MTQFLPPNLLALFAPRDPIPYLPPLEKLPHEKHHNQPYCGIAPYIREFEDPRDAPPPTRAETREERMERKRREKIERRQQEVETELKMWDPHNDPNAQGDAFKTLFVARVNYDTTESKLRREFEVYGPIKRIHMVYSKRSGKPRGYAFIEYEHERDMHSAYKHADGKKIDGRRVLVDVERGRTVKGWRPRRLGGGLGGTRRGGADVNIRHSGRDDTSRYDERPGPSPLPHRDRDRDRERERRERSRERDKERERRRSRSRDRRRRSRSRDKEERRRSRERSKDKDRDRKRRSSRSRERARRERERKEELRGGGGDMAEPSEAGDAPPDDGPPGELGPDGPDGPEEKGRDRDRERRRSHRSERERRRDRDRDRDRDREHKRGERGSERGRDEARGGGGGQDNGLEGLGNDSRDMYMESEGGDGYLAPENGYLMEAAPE
UniProt O60271: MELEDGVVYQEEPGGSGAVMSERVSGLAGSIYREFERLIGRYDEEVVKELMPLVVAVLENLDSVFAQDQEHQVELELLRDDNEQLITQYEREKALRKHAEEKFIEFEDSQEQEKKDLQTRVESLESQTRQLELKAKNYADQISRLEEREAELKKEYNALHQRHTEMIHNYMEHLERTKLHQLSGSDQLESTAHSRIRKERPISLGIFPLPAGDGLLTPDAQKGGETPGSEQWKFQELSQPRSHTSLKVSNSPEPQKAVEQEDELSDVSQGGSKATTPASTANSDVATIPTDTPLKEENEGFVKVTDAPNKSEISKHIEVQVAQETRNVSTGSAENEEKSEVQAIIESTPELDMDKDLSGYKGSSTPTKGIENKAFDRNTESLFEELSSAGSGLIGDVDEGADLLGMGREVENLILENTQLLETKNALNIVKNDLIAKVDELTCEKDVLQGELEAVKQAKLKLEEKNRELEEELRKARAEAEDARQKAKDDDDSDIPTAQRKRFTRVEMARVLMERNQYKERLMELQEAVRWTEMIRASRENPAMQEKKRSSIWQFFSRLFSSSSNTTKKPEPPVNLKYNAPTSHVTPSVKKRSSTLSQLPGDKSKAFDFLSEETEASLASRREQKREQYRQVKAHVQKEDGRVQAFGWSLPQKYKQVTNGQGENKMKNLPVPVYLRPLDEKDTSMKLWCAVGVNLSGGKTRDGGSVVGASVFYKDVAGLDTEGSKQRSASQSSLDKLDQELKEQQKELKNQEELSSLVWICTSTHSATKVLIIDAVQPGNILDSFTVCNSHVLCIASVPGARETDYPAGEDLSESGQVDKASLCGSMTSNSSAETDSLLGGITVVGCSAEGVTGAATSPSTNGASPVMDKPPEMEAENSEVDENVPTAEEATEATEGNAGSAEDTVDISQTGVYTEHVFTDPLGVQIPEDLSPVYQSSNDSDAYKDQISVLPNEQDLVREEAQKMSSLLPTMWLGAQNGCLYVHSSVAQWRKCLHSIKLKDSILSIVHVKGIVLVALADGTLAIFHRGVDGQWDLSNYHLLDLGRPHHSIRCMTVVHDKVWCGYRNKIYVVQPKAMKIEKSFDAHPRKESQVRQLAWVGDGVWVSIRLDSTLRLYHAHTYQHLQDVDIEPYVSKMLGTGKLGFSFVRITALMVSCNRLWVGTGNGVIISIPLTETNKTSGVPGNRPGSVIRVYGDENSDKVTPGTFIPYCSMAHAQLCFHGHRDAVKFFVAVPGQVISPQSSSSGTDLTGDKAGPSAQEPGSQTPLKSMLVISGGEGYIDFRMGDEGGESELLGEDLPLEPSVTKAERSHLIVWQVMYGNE
UniProt O94964: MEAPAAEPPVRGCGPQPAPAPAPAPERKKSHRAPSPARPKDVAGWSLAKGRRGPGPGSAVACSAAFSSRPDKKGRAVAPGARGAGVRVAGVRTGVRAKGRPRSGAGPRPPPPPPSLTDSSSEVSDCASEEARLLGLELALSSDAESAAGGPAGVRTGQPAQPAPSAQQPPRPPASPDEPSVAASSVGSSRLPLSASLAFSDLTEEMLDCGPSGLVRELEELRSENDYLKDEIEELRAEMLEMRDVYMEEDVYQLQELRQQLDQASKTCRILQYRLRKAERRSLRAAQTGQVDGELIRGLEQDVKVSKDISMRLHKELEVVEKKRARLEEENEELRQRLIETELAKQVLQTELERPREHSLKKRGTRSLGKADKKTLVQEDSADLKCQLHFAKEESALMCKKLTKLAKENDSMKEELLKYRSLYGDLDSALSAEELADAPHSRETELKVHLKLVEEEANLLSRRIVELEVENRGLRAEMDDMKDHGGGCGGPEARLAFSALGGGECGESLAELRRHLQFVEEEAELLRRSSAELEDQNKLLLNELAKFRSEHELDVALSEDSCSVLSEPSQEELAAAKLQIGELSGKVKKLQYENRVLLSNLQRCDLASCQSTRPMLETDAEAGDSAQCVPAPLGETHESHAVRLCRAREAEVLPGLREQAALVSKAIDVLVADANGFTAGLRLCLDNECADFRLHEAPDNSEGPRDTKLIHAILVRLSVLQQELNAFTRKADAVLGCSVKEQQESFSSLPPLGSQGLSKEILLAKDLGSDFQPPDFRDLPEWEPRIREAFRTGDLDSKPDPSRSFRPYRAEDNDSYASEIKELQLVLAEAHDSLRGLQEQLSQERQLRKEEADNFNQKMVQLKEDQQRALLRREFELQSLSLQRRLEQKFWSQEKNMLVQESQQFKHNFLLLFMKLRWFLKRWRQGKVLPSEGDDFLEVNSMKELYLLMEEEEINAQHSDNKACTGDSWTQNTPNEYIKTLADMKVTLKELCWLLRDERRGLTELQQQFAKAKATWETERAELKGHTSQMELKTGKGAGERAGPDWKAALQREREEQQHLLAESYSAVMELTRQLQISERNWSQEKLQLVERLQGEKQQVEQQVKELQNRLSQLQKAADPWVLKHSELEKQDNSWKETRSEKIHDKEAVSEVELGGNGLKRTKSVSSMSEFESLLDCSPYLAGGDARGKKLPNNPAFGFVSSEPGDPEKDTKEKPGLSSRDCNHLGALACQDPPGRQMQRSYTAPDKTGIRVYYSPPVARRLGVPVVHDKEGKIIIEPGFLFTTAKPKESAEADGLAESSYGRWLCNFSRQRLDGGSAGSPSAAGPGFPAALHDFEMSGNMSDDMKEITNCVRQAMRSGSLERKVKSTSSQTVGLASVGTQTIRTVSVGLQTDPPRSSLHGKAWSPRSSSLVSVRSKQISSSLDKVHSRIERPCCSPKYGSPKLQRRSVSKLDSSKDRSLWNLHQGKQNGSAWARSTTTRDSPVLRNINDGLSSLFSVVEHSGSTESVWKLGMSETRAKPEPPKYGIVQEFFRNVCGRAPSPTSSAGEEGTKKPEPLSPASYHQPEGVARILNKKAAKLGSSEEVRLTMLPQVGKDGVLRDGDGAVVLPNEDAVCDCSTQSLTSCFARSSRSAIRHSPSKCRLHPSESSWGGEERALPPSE
UniProt Q13425: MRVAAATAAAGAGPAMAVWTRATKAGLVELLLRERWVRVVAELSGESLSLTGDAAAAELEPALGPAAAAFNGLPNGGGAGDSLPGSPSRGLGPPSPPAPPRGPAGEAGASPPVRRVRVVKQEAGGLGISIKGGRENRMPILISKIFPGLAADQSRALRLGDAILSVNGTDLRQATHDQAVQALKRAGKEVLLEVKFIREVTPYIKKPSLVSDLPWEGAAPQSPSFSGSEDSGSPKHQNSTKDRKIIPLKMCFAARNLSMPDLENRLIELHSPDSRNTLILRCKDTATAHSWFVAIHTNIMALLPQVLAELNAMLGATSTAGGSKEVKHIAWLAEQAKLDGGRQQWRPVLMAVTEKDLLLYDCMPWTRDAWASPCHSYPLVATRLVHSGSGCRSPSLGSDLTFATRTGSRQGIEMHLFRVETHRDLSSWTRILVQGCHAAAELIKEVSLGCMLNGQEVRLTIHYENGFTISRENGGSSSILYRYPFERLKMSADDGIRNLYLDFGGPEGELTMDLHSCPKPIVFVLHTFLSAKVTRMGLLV
UniProt O60493, whole entry, looked up: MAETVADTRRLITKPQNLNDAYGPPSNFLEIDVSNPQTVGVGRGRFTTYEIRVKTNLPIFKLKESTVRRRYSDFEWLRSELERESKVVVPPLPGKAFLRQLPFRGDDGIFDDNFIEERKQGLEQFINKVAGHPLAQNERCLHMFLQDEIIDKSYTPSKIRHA
UniProt P62306, whole entry, looked up: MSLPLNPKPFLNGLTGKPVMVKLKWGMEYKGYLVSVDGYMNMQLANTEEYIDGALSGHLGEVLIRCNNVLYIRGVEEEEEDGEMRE
UniProt P09486: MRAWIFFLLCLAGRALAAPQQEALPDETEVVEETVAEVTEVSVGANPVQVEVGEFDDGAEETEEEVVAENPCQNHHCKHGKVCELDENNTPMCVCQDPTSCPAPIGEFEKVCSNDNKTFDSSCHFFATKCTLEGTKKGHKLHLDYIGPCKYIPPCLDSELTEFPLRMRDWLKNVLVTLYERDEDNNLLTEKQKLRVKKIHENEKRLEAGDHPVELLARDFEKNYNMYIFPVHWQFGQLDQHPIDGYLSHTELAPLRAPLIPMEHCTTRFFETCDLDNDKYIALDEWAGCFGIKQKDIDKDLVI
UniProt P09234, whole entry, looked up: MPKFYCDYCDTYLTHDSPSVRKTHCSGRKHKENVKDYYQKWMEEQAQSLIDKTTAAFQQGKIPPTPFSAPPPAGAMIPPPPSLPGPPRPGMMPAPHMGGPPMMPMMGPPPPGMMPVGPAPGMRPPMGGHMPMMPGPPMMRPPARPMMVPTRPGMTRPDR
UniProt Q92925, whole entry, looked up: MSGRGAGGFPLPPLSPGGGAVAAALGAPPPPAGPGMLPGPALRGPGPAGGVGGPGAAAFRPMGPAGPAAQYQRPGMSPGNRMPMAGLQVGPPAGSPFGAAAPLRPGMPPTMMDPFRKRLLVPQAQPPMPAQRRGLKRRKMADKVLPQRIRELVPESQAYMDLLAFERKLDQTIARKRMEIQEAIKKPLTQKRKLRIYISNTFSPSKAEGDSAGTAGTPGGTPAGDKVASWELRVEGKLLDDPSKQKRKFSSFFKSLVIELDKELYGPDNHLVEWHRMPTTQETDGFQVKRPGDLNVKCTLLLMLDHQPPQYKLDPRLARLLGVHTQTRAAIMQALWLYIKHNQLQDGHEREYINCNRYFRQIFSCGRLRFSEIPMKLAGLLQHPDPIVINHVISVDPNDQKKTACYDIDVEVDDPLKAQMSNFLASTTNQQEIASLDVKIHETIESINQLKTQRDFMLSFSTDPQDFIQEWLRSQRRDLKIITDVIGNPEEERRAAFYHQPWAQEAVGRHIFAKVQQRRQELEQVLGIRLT
UniProt Q8TAQ2, whole entry, looked up: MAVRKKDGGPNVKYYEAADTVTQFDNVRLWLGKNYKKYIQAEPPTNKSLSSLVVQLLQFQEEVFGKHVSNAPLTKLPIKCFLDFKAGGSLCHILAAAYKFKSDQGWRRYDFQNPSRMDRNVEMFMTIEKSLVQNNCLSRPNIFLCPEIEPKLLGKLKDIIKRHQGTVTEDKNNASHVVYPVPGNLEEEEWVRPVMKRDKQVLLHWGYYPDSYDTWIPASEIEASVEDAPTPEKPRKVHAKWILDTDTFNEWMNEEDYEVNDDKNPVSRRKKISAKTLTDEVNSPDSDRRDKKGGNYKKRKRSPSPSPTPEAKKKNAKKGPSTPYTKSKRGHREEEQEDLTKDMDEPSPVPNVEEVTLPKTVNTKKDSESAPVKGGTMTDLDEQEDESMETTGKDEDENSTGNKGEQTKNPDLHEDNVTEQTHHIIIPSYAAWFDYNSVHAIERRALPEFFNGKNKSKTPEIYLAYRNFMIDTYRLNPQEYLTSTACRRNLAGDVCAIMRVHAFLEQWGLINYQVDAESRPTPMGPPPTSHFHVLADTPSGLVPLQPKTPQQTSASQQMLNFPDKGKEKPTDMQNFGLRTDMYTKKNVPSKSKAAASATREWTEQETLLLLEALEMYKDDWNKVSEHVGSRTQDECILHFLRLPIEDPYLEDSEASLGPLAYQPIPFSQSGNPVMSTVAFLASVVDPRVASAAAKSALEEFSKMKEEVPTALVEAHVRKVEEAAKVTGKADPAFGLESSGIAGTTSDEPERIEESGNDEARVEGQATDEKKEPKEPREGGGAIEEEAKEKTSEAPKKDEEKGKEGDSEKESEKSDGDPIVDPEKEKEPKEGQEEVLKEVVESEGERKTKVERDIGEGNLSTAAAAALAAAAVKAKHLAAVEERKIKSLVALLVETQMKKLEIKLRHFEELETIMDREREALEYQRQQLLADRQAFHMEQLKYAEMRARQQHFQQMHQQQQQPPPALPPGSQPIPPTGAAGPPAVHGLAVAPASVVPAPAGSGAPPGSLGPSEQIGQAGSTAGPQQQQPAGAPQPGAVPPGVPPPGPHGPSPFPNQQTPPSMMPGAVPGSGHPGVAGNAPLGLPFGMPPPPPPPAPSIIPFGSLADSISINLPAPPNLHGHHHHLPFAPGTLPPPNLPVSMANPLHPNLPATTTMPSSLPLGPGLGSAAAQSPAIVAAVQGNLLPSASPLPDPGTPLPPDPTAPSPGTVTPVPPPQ
UniProt P62304, whole entry, looked up: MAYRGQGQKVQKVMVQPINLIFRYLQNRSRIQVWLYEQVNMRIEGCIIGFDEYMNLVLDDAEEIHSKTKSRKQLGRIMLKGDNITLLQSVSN

Compound: C1=CC2=C(C=CC(=C2)/C=C\3/C(=O)NC(=NCC4=CC=CS4)S3)N=C1
Assay: log2 fold change, soluble protein after heating vs DMSO (PISA); higher = thermal stabilisation; K562 lysate, 10 uM; active = over 0.2 and 3.5 SD of the protein, either way, in both replicates (recomputed)
Procedure, shortened: (§1)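 K562 pellets were dounce-homogenised in PBS pH 7.4 containing 1 mM MgCl2, and the crude extract, at 1 mg/mL protein, was exposed to 10 μM compound for 30 min. Aliquots were heated for 3 min across 48°C-58°C, pooled, brought to 0.5% NP-40 at 4°C and spun at 21,000xg for 90 min, with the supernatant taken as soluble protein. TMTpro 16plex LC-MS/MS with equalised channel sums quantified that protein. Values are log-two fold changes in thermal stability relative to solvent controls, taken from duplicates.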

log2 fold change, inactive:
SNRPG (UniProt P62308) 0.011
SNX27 (UniProt Q96L92) -0.019
SMARCD1 (UniProt Q96GM5) -0.081
SNRNP70 (UniProt P08621) 0.031
SNX2 (UniProt O60749) 0.009
SMARCA4 (UniProt P51532) 0.011
SPAG9 (UniProt O60271) 0
SMCHD1 (UniProt A6NHR9) -0.02
SNRPD3 (UniProt P62318) -0.057
SMN1 (UniProt Q16637) -0.075
SNAP23 (UniProt O00161) 0.047
SOGA1 isoform 2 (UniProt O94964) -0.083
SORBS1 isoform 8 (UniProt Q9BX66) -0.012
SNTB2 (UniProt Q13425) 0.092
SMARCAD1 isoform 2 (UniProt Q9H4L7) 0.023
SNX15 (UniProt Q9NRS6) -0.048
SNAPIN (UniProt O95295) 0.032
SPAG7 (UniProt O75391) -0.019
SMC1B isoform 3 (UniProt Q8NDV3) -0.04
SNX3 (UniProt O60493) 0.009
SNRPF (UniProt P62306) -0.017
SNRNP40 (UniProt Q96DI7) -0.031
SNRNP200 (UniProt O75643) 0.009
SPARC (UniProt P09486) 0.036
SNRPC (UniProt P09234) 0.021
SNX17 (UniProt Q15036) 0.027
SMARCD2 (UniProt Q92925) 0.049
SMARCAL1 (UniProt Q9NZC9) -0.002
SMARCB1 (UniProt Q12824) 0.021
SNRNP48 (UniProt Q6IEG0) -0.119
SNRPC (UniProt Q5TAL2) 0.044
SNX11 (UniProt Q9Y5W9) -0.017
SNCA (UniProt P37840) 0.025
SMU1 (UniProt Q2TAY7) 0.019
SNRPB isoform 3 (UniProt P14678) -0.004
SNRPD2 (UniProt P62316) -0.004
SMARCC2 (UniProt Q8TAQ2) 0.008
SNX6, A0A0A0MRI2 0.04
SNRPE (UniProt P62304) -0.017

Compound: C1=CC2=NC=CN=C2C=C1/C=C/3\C(=O)NC(=O)S3
Assay: as above
Procedure, shortened: as §1

log2 fold change, inactive:
SNRPG (UniProt P62308) -0.066
SNX27 (UniProt Q96L92) 0.001
SMARCD1 (UniProt Q96GM5) 0.045
SNRNP70 (UniProt P08621) 0.011
SNX2 (UniProt O60749) -0.025
SMARCA4 (UniProt P51532) -0.001
SPAG9 (UniProt O60271) 0.003
SMCHD1 (UniProt A6NHR9) -0.033
SNRPD3 (UniProt P62318) 0.013
SMN1 (UniProt Q16637) -0.055
SNAP23 (UniProt O00161) 0.02
SOGA1 isoform 2 (UniProt O94964) -0.136
SORBS1 isoform 8 (UniProt Q9BX66) -0.021
SNTB2 (UniProt Q13425) 0.03
SMARCAD1 isoform 2 (UniProt Q9H4L7) -0.019
SNX15 (UniProt Q9NRS6) 0.012
SNAPIN (UniProt O95295) 0.028
SPAG7 (UniProt O75391) 0.029
SMC1B isoform 3 (UniProt Q8NDV3) -0.067
SNX3 (UniProt O60493) 0.004
SNRPF (UniProt P62306) -0.065
SNRNP40 (UniProt Q96DI7) -0.031
SNRNP200 (UniProt O75643) -0.007
SPARC (UniProt P09486) -0.054
SNRPC (UniProt P09234) -0.001
SNX17 (UniProt Q15036) -0.023
SMARCD2 (UniProt Q92925) 0.001
SMARCAL1 (UniProt Q9NZC9) -0.176
SMARCB1 (UniProt Q12824) -0.019
SNRNP48 (UniProt Q6IEG0) -0.019
SNRPC (UniProt Q5TAL2) -0.021
SNX11 (UniProt Q9Y5W9) -0.039
SNCA (UniProt P37840) -0.147
SMU1 (UniProt Q2TAY7) 0.027
SNRPB isoform 3 (UniProt P14678) -0.003
SNRPD2 (UniProt P62316) -0.018
SMARCC2 (UniProt Q8TAQ2) -0.002
SNX6, A0A0A0MRI2 -0.028
SNRPE (UniProt P62304) -0.017
